Publication PMC9476698
These are yes or no findings as the source states them, for the method shown. In cells and extracts the contact can be indirect. Some binding calls cover weakened binding; strength is not graded here.

Protein sequences, listed by entry. Tags and fused reporters are not part of them.
UniProt Q13838: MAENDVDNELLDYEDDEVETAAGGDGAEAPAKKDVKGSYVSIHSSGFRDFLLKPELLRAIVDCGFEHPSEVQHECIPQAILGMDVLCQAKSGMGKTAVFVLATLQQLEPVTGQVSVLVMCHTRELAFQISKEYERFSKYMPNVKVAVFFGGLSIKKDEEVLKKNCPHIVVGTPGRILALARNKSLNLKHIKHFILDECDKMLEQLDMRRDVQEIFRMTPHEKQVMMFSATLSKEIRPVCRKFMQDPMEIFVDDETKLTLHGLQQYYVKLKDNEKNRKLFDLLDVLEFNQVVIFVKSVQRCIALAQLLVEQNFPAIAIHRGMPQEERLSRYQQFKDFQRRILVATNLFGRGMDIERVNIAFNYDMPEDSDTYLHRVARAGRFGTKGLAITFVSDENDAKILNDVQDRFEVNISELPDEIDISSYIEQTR

Biological target: T1, RETSAT (Retinol Saturase; all trans retinol 13,14 reductase) (human (endogenous in PANC-1)) (UniProt Q6NUM9)
T1 sequence: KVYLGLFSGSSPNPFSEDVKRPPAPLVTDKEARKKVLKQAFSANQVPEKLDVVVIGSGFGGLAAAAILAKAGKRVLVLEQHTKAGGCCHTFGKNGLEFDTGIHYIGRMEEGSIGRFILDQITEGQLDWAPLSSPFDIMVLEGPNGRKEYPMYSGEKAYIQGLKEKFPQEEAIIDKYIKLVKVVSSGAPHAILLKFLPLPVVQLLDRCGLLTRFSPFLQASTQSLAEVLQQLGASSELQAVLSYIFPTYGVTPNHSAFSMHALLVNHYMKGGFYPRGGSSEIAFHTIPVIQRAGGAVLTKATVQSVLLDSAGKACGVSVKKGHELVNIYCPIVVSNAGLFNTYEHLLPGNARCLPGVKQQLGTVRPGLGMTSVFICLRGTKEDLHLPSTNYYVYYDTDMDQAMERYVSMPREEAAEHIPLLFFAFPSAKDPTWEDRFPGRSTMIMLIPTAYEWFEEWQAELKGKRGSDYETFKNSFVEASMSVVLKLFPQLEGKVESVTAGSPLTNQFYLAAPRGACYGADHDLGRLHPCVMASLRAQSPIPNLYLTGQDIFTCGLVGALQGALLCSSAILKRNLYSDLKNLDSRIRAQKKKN
Test: co-IP; anti-RETSAT antibody overnight, protein A/G agarose; PANC-1 nuclear protein lysate in RIPA buffer, digested with 10 units/mL DNase I; isotype IgG as negative control; cells under vehicle, gemcitabine treatment or severe hypoxia; immunoblotting

binding: binds
Substance: DDX39B (also named as UAP56 or BAT1) (from UniProt Q13838 1-428)
